Reference: PubChem BioAssay AID1347426 (Functional Genomics Laboratory (NCATS/FGL), 2020)
Out of some 31,000 sequences screened, about 1,400 (4.5%) were called active.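 The calls were made as follows: active = median seed-adjusted z-score above 1 or below -1; inactive = the rest.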 The list shows a part of the results.

assay: Novel Modifiers of Survival Motor Neuron (SMN) Protein: Gene Identification via Genome-wide siRNA Screen; settings: HEK293T SMN2-luciferase reporter, siRNA knockdown, 72 h; actives lie on both sides
Excerpt: Spinal muscular atrophy (SMA) is the most common neuromuscular autosomal recessive disorder and one of the leading genetic causes of infant death. SMA results from mutations inducing loss of function or deletion in the survival of motor neuron-1 gene (SMN1), leading to deficiency of the survival motor neuron (SMN) protein. Although a second nearly identical gene, SMN2, is retained in humans, its expression primarily produces an aberrantly spliced isoform that is largely unstable and quickly degraded. We performed a genome-wide RNAi screen using a cell-based reporter assay to identify genes and pathways that modulate SMN protein stability. The screen identified over 200 genes that led to the greatest increase or decrease in luciferase expression.
Using HEK293T cells stably expressing a luciferase reporter that combines the promoter and splicing based cassettes in tandem with the major portion of the native SMN2 cDNA with luciferase, we performed a genome-wide RNAi screen to identify modulators of SMN protein levels. Luciferase is expressed when full-length SMN protein is generated with luminescence signal proportional to SMN protein levels. Our luciferase-based reporter assay was used to screen Ambion Silencer Select Human Druggable Genome siRNA library (10418 genes, 3 unique siRNAs per gene) using lipid-based reverse transfection.
Briefly, 1 pmol of each siRNA was spotted to a well of a 384-well plate (Corning, Corning, NY) and 20 microL of serum-free DMEM containing […] of Lipofectamine RNAiMax (Life Technologies, Carlsbad, CA) was then added to each well. Transfected cells were maintained at 37 degrees C in 5% CO2 for 72 hours, 20 microL of ONE-Glo Reagent (Promega) was added to wells for luciferase quantification. Raw luminescence reads were normalized to Ambion(R) Silencer(R) Negative Control #2 siRNA, then log10 transformed. A robust statistical measure of median absolute deviation (MAD) to standardize siRNA activities from each screen. Common Seed Analysis was used to help prioritize clean hits as opposed to those appearing to arise from seed based off-target effects. Candidate modulators were defined as the genes having a MAD score greater than 1.0 or less than -1.0.

Row | Sequence | median seed-adjusted z-score
1 | GCUACAACGGAAACAAUCATT against MSTN | inactive: -0.639
2 | GAGAGUAUAUUGACUAUGATT against XRN1 | inactive: 0.522
3 | CUUAACCUGUGGAAUCGAATT against NIPA2 | inactive: -0.103
4 | CCACAGCAGGUGUCAUAUATT against NGFR | inactive: -0.0846
5 | GAAUCUUUACAGGACUAUATT against CDC2 | inactive: 0.424
6 | GGCUGAGCUUUAGAAAGCUTT against LENG9 | inactive: 0.607
7 | GAACAGUGUCGAGAACAAATT against SLAMF1 | inactive: -0.104
8 | GCCUAGACUUCAAUAAGAATT against PPP2R2A | inactive: -0.596
9 | CACUGGUUAUAAAUCUUCATT against CADM3 | inactive: 0
10 | GAAUCGUUGUUGUUAUGCATT against RASA1 | inactive: -0.398
11 | CUCCAUAACUGAUCCAGGATT against ZDHHC21 | inactive: 0.216
12 | GGAAGAUAUGCAAGCAGAATT against RNF112 | inactive: -0.42
13 | CCCACGAUCUCAAAAAGAUTT against PC | inactive: 0.2
14 | CCUAAAUGGUCGCAAAGUATT against PABPC3 | inactive: -0.314
15 | CUUGGGACCUCCAAACUUATT against RAD52 | inactive: -0.737
16 | GCCUCUCAACGUGAAAGUUTT against KRT2 | inactive: -0.451
17 | GCUUGGAGGAUUUCAUGGATT against POFUT1 | inactive: 0
18 | CCCUAGGCCUUUUACGAAATT against RAG1 | active: -1.35
19 | CCAUAUAGAGAUACUCAAATT against HIF1A | inactive: 0.228
20 | CAAAGACAGCCGCCCAGAATT against APOC2 | inactive: -0.0599
21 | CCCACUACAUGUUCCUGUUTT against ABHD9 | inactive: 0.486
22 | GGAUCCAGCUUUUCCUCGATT against ABCC10 | active: -1.56
23 | CUACGUGUCGGGAAGUACATT against DHCR24 | inactive: 0.493
24 | GUUUGACCAUGUAACCGUATT against DIS3L | inactive: 0
25 | AGUACUACAUGGAUCUCAATT against PURA | inactive: -0.0185
26 | GCUACUUACAGGUACCGUATT against PDCD11 | inactive: -0.335
27 | CAUCUGAUCCGGGAAAUCATT against GALNT14 | inactive: 0
28 | GAUUUGAUGUCGUCUUUAATT against PTGR1 | inactive: 0
29 | GAGAGAUUUCGGUCCAUUATT against RAB30 | inactive: 0.395
30 | CAGUCAAUGUCGAUAGUAATT against ARID4B | inactive: 0.211

2 entries from above, as labelled records.
GCCUCUCAACGUGAAAGUUTT against KRT2
  median seed-adjusted z-score: inactive: -0.451
GCUUGGAGGAUUUCAUGGATT against POFUT1
  median seed-adjusted z-score: inactive: 0
